In article PMC10089660:
These are yes or no findings as the source states them, for the method shown. In cells and extracts the contact can be indirect. Some results given as binding are weak or reduced against the parent protein; the word gives no strength.

Protein sequences, listed by entry. Tags and fused reporters are not part of them. Residues count along the entry.
UniProt P27169: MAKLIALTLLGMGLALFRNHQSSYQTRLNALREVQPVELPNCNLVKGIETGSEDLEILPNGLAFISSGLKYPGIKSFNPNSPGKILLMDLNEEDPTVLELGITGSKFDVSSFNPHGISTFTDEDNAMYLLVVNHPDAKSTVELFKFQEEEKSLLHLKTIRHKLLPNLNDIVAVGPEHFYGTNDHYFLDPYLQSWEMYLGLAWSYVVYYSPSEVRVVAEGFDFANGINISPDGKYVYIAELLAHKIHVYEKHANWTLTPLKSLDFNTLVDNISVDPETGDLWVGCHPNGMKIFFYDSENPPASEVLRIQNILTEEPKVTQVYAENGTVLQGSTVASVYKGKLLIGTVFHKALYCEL
UniProt Q15166: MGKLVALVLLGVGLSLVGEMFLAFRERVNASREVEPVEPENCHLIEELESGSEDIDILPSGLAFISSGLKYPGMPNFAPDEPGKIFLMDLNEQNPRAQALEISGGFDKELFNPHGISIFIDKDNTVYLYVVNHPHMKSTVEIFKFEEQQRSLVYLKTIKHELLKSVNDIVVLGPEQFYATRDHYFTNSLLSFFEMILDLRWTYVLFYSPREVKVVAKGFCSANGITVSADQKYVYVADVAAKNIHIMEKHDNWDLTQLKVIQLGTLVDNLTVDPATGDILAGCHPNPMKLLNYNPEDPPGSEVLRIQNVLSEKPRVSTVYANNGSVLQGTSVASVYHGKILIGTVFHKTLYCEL
UniProt P05164, residues 49-745: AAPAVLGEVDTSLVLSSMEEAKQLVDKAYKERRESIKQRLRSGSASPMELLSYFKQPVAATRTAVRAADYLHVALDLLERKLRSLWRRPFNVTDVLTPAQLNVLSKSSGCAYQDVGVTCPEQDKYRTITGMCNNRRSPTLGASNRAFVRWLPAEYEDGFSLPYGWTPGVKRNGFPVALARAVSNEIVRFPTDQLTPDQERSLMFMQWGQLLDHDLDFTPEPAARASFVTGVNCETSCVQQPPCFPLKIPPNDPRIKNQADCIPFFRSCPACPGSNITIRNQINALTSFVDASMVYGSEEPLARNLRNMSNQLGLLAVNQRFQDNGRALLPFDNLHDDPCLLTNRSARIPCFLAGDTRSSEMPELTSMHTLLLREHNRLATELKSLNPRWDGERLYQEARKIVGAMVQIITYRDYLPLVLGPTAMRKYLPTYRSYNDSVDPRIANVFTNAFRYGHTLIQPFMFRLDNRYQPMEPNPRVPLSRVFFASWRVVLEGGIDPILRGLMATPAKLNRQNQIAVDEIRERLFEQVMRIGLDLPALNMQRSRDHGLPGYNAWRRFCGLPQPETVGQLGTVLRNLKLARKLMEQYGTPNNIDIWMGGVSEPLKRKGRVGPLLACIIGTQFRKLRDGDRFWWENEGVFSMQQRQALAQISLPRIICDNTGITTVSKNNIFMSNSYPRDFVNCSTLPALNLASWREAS
UniProt P04275, residues 764-2813: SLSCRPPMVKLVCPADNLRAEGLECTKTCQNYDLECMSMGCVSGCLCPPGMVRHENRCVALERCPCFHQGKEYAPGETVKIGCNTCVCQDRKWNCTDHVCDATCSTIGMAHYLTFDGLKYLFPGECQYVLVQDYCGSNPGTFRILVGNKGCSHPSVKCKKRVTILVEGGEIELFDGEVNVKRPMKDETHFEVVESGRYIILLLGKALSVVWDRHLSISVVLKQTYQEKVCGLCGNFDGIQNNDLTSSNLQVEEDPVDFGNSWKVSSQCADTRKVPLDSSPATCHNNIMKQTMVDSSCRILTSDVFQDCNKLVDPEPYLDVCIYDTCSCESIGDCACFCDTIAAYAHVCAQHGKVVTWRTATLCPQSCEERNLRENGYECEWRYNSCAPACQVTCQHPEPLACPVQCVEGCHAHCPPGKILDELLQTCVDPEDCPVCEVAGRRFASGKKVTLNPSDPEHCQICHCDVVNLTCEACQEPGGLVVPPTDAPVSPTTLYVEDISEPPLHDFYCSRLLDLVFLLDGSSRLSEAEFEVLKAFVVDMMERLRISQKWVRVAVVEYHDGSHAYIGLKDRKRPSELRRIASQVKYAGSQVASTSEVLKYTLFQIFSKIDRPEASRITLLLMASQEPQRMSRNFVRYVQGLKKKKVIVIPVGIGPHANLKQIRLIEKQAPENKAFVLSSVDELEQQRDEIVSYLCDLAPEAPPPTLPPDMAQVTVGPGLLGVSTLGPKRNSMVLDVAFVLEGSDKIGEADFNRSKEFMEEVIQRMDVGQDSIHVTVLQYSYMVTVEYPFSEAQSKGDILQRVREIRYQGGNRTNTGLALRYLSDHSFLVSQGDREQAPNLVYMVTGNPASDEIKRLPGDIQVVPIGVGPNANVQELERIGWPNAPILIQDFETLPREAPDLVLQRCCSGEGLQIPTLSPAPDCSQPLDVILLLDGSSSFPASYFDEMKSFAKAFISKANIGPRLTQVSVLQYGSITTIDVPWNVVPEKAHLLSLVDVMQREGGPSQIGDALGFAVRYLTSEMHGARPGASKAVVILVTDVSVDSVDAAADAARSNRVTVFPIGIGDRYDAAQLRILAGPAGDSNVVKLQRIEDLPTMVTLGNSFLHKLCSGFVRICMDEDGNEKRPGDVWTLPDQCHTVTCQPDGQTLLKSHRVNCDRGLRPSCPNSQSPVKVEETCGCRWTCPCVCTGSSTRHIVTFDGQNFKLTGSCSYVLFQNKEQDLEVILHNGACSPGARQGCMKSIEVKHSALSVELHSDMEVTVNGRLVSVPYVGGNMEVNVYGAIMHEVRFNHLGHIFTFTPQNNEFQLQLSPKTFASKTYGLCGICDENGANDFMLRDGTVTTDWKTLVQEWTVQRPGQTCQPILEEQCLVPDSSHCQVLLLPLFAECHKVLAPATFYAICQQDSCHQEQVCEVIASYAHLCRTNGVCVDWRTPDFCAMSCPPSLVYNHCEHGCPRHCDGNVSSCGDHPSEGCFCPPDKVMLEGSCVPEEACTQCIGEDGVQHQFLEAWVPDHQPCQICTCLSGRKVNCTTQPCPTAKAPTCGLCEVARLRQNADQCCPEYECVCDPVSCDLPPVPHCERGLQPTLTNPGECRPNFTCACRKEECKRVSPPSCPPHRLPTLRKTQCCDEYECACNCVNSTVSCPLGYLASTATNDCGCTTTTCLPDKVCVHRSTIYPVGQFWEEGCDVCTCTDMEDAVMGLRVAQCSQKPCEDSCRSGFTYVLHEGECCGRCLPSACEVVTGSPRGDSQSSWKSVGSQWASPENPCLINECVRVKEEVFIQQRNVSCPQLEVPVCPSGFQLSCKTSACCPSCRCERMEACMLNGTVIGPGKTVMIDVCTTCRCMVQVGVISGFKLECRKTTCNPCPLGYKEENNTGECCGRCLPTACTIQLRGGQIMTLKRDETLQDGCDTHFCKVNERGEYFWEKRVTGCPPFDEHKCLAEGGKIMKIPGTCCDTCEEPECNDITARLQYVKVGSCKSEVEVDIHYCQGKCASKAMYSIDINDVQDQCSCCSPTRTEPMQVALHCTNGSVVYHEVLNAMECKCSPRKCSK

Molecular target: paraoxonase 1 (PON1) (human (endogenous in human cancer cell lines)) (UniProt P27169)
Test: cross-linking + co-IP; cells cross-linked with 1 mM EGS, 45 min, 4 °C; cross-linking-mediated coimmunoprecipitation with PON1 antibody; multiplexed capture beads for PON3, VWF and MPO, detection with biotinylated PON1 antibody and streptavidin-phycoerythrin (Bio-Plex 3D); whole cell lysates, golgi fractions and secretomes of parental, EGFR-TKI-treated cells and DR clones; also after SREBP2 RNAi

Substance	binding
paraoxonase 3 (PON3) (from UniProt Q15166 1-354)	binds
myeloperoxidase (MPO) (from UniProt P05164 49-745)	binds
von Willebrand factor (VWF) (from UniProt P04275 764-2813)	binds
